Source: publication PMC3679059

The chains behind the UniProt entries cited, without tags or fusion partners. Where a name states a change or a piece, a line headed by the entry shows the natural chain unless it says otherwise. Residues count along the entry.
UniProt O22476, residues 24-1196: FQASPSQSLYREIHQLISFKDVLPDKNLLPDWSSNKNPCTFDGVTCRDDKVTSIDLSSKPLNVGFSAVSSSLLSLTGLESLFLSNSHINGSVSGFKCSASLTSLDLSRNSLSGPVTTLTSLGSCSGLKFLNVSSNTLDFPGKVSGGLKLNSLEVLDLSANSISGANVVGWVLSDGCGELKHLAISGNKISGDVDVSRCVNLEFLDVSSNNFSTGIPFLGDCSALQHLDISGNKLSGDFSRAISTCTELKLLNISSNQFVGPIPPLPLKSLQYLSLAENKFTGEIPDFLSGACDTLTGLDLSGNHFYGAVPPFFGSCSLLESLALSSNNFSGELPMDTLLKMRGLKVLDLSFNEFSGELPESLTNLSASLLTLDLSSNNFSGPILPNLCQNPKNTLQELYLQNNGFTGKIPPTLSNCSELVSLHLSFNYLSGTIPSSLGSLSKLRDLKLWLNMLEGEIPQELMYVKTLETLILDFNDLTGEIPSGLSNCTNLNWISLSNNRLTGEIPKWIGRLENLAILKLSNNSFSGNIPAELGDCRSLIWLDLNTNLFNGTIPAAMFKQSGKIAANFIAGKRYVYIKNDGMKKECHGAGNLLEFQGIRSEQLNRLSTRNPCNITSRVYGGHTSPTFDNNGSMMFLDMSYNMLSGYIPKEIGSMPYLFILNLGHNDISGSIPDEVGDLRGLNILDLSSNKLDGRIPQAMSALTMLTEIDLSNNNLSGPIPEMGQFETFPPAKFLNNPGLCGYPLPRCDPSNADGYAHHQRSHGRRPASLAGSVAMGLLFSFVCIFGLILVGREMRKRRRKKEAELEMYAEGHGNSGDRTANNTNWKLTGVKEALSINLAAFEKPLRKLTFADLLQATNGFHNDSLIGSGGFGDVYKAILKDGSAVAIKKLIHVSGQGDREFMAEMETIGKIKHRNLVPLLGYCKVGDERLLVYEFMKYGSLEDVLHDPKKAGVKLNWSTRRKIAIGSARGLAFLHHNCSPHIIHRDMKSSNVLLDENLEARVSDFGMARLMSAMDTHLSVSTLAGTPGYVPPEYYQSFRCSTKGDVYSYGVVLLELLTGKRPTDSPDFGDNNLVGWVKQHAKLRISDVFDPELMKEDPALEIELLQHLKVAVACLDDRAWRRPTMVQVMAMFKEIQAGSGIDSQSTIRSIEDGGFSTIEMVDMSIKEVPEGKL
UniProt Q7DZ57: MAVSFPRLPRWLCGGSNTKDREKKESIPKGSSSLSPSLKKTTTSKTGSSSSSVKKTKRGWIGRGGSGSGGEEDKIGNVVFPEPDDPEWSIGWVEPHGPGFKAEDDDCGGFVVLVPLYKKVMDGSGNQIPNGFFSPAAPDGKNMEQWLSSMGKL

Columns and labels:
Assay in all cases: co-IP; proteins co-expressed in the same N. benthamiana leaves; total membrane fraction solubilised with 1% triton X-100; IP with anti-GFP and protein A agarose at 4°C, blot with anti-FLAG
BRI1-GFP (full-length) = BRI1-GFP (full-length) (UniProt O22476)
[1] = biological target: T1, BAM1-GFP (full-length) (Arabidopsis) (UniProt O49545)
T1 sequence: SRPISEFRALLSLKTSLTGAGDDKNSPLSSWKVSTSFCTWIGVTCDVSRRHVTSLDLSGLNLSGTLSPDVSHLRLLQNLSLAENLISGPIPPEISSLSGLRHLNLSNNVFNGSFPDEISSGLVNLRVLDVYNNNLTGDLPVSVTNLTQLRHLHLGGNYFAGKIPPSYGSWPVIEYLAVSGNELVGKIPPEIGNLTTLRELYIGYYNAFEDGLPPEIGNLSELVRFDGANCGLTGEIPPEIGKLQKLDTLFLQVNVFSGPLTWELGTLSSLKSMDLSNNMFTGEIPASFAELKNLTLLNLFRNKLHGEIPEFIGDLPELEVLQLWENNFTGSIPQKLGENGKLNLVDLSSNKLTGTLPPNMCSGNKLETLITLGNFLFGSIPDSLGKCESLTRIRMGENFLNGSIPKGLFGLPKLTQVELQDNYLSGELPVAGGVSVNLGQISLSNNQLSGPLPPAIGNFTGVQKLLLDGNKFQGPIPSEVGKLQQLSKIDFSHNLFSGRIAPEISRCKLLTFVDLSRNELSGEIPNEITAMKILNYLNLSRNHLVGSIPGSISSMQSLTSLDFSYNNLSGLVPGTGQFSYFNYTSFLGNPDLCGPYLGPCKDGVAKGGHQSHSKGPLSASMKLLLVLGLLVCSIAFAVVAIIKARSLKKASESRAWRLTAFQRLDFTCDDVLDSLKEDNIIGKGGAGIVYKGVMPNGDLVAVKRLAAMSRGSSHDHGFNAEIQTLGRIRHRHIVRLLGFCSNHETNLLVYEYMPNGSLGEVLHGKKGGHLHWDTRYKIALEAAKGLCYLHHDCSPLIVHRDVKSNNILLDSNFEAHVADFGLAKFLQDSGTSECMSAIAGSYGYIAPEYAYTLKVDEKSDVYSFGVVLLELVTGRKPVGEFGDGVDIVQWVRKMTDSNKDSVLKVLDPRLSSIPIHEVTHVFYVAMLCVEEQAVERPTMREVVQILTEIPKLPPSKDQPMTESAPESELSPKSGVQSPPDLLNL

[2] = biological target: T2, CLV2-GFP (full-length) (Arabidopsis) (UniProt O80809)
T2 sequence: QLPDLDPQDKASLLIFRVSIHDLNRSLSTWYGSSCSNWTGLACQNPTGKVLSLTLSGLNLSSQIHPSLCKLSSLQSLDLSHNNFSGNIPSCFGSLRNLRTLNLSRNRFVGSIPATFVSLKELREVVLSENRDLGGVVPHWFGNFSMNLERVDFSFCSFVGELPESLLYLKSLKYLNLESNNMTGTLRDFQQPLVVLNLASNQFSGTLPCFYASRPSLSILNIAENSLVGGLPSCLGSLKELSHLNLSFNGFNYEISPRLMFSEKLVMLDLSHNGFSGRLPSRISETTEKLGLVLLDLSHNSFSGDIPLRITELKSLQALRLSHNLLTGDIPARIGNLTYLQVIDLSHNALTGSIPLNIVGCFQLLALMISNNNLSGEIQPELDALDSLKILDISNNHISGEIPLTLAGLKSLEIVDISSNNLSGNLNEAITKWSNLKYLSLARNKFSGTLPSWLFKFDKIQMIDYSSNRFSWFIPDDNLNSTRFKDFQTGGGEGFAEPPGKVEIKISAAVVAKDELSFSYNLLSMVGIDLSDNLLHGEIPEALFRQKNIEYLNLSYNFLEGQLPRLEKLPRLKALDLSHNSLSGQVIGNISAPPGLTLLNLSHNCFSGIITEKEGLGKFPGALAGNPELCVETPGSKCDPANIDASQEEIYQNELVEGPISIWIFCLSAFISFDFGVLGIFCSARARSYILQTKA

[3] = biological target: T3, BAM2-GFP (full-length) (Arabidopsis) (UniProt Q9M2Z1)
T3 sequence: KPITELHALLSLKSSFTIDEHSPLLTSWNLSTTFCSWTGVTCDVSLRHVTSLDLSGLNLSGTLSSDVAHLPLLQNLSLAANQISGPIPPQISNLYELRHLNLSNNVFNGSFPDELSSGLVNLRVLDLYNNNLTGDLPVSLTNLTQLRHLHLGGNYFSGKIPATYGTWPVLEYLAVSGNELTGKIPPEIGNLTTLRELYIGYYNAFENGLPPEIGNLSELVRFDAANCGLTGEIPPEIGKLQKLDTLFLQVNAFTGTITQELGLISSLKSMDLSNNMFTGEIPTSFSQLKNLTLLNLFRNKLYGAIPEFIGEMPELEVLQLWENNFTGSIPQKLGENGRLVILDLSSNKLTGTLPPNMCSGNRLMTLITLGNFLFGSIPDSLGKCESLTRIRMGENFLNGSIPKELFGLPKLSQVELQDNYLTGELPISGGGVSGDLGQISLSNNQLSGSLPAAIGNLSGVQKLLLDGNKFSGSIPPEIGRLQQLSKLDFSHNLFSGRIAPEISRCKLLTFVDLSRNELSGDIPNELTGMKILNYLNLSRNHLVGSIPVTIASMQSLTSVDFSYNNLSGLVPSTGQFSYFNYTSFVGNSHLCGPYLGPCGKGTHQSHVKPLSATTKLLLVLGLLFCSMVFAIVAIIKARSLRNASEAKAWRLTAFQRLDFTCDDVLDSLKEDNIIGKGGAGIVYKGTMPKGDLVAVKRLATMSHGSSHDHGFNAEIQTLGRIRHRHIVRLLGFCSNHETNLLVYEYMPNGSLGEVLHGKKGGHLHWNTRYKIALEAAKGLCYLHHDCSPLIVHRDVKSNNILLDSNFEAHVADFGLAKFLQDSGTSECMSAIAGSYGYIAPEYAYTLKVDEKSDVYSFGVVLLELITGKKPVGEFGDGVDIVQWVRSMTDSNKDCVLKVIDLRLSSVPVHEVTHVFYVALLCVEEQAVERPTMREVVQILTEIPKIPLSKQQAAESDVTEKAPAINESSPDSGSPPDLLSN

Measured: binding

CCI1-FLAG (from UniProt Q7DZ57)
binds: all assays above

These are yes or no findings as the source states them, for the method shown. Binding seen in cells or lysates may run through a third protein. A result given as binding can be weak or reduced; the word gives no strength. For some of these results: Where a sequence is shown, tags or fusion partners need not be part of it.
